These are yes or no findings as the source states them, for the method shown. For some assays here: In cells and extracts the contact can be indirect. Some entries that bind do so weakly or less than the wild type. For some assays here: Tags and fused reporters may be left off the sequences shown. Each block holds one binder with its values, some of them ahead of it.
How the values were obtained:
[1] = target: T1, OsHox32 (rice (Oryza sativa L.)) (UniProt Q6AST1); test: two-hybrid; yeast two-hybrid (Clontech), pGBKT7 and pGADT7 constructs; growth on synthetic complete medium lacking Trp, Leu, His and Ade
T1 sequence: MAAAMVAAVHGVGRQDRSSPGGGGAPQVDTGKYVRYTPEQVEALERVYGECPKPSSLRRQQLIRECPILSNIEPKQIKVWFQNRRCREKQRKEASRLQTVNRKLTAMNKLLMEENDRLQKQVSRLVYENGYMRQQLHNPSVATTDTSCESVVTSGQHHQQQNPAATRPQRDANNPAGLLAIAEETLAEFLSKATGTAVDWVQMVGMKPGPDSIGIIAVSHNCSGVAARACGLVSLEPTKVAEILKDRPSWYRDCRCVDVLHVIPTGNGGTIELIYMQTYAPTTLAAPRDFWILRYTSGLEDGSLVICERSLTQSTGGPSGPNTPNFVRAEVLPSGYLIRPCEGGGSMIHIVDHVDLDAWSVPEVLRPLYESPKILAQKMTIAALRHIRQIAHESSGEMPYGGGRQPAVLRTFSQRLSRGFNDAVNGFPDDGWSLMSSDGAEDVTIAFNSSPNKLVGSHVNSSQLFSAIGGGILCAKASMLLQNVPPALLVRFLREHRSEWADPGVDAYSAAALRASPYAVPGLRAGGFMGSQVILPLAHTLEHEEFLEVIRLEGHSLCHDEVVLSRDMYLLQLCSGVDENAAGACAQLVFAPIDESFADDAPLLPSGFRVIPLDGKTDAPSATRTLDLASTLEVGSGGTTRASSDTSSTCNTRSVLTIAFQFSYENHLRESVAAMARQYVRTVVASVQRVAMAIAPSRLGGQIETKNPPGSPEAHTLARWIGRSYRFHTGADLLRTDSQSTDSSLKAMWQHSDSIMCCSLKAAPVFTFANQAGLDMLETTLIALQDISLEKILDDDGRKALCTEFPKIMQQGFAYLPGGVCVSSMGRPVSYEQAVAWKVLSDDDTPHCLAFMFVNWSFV

[2] = target: T2, OsHox32‐nYFP fusion protein (rice (Oryza sativa L.)) (UniProt Q6AST1); test: split reporter; BiFC: OsHox32‐nYFP and OSH15‐cYFP co-transfected into Arabidopsis protoplast cells, 23 °C for 16 h, YFP fluorescence by microscopy
T2 sequence: T1 sequence

binding [1]: binds
B1: OSH15 (Oryza sativa homeobox 15) (protein, UniProt O80416 1-355)
chain: MDQSFGNLGGGGGAGGSGKAAASSFLQLPLSTAAAATAYYGTPLALHQAAAAAGPSQYHGHGHPHHGGGHHHSKHGGAGGGEISAAEAESIKAKIMAHPQYSALLAAYLDCQKVGAPPEVLERLTATAAKLDARPPGRHDARDPELDQFMEAYCNMLAKYREELTRPIDEAMEFLKRVESQLDTIAGGAHGGGAGSARLLLADGKSECVGSSEDDMDPSGRENEPPEIDPRAEDKELKFQLLKKYSGYLSSLRQEFSKKKKKGKLPKEARQKLLHWWELHYKWPYPSETEKIALAESTGLDQKQINNWFINQRKRHWKPSEDMPFVMMEGFHPQNAAALYMDGPFMADGMYRLGS

binding [2]: binds
B2: OSH15‐cYFP fusion protein (protein, UniProt O80416 1-355)
chain: B1 chain
